The values that follow are results of earlier work, collected in US6825194B2, “Hexacyclic compounds” (Chugai Seiyaku Kabushiki Kaisha, priority 2001, dated 2004).

For the series the following is noted: cited from earlier work.

The structures appear in SMILES notation.

Consider `CC[C@@]1(O)C(=O)OCc2c1cc1n(c2=O)Cc2cc3ccccc3nc2-1` [camptothecin, 4(S)-ethyl-4-hydroxy-1H-pyrano[3′,4′:6,7]indolizino[1,2-b]quinoline-3,14(4H,12H)-dione], for which the solubility in water entry is given as “poorly soluble in water”.
